This passage reports cell number change and AC50 results from PubChem BioAssay AID2685 (National Center for Advancing Translational Sciences (NCATS), 2010).

The nature of the experiment: qHTS Assay for Lipid Storage Modulators in Drosophila S3 Cells.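 As to cell number change: cells counted by Cell Tracker Red CMTPX staining in the red channel.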 Conditions: BODIPY lipid droplet fluorescence, 18-24 h; for cell number change: measured here: cell count max response, cells fed with added oleic acid. Summed up:
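Drosophila S3 cells loaded with oleic acid (400 uM, as added) and compounds at several concentrations; lipid droplets imaged by 488-nm laser-scanning cytometry, 500–530 nm intensity and object ratio to cell channel. Percent activity normalized to 20 uM Triacsin C.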
(In general: In qHTS, concentration-response curves come from the screen itself.)

The mark [1] stands for this setting: measured here: lipid fluorescence (Fed channel) AC50, cells fed with added oleic acid.
Where [2] appears, read: measured here: cell number channel AC50, cells fed with added oleic acid.

Structures are written as SMILES. This is one part of the list. Shown are side measurements of this screen, not its main read-out; they come without a call. The list favours compounds with an active or inconclusive main result. Words in brackets tell the shape of the fitted curve; partial curves, single points and poor fits give uncertain potencies.

A word on the AC50: it is the midpoint of the concentration-response curve, whichever way the signal moves. Read a low AC50 as greater potency. As to `C[C@@H]1CN=C2N(CCNC(=O)CCC3CCCCC3)[C@H](Cc3ccc(O)cc3)CN21`, the cell number change is 19.9%. The AC50 under setting [1] was 0.58 µM [rising, full curve, poor fit].

Regarding `COc1cc(C(=S)N2CCCCC2)ccc1OCC(=O)N1CCCC1`, the cell number change came out at 125%. Besides, the AC50 under setting [2] is 20.6 µM [rising, single point].

Take `Cc1ccc(-c2csc(N3CCC[C@@H]3C(=O)NCCn3c(-c4ccncc4)nc4ccccc43)n2)cc1`: the cell number change is -28.7%. The AC50 under setting [1] was 1.3 µM [falling, full curve].

Turning to `Cc1ccc(S(=O)(=O)NCCNc2ccc([N+](=O)[O-])cc2)cc1`, under setting [1], the concentration at half-maximal activity (AC50) is 6.51 µM [falling, single point].

`CCOc1ccc(S(=O)(=O)N2CCC(C(=O)NCC(=O)Nc3cccc(Cl)c3C)CC2)cc1`: the cell number change was found to be 40.6%. Besides, the AC50 under setting [2] is 16.4 µM [rising, single point].

For the compound `O=C(CCCC(=O)N(CC(=O)NC1CCCC1)c1cccc(F)c1)Nc1ccccn1`, the cell number change was 25.7%. In addition, under setting [1], the AC50 was 0.58 µM [rising, single point].

On to `NC(=O)c1ccc(NC(=O)COC(=O)C2(c3ccccc3F)CCCC2)cc1`, for which the AC50 under setting [1] is 0.58 µM [falling, single point].

Turning to `CCN(Cc1nc2cc(Cl)ccc2c(=O)[nH]1)C(=O)COc1ccccc1Cc1ccccc1`, the cell number change is -37.4%. Moreover, the AC50 under setting [2] is 20.6 µM [falling, single point].

Consider `COc1ccc(CNC(=O)c2cc(=O)c3c(C)cc(C)cc3o2)cc1`, for which the cell number change was 7.01%. Besides, under setting [1], the AC50 was 3.66 µM [rising, partial curve, poor fit].

As for `COc1ccccc1NS(=O)(=O)c1ccc(NN=C2CCCC2)c([N+](=O)[O-])c1`, the cell number change was -42.2%. Further, the AC50 under setting [2] is 20.6 µM [falling, single point]. In addition, the AC50 under setting [1] is 18.4 µM [falling, single point].

Turning to `CCCCN1C(=O)c2ccc(C(=O)OCC(=O)N3CCN(c4ccccc4)CC3)cc2C1=O`, the cell number change was 8.64%.

As to `ONC(=Nc1ccc(Cl)cc1)c1ccccc1Cl`, the cell number change is -76.7%. The AC50 under setting [2] was 16.4 µM [falling, partial curve, poor fit].

As to `O=C(NCc1ccc(Cl)cc1Cl)c1ccccn1`, the AC50 under setting [1] is 0.58 µM [rising, single point].

For `CCN1CCN(c2ncc(C(=O)Nc3cc(Cl)c(OC)cc3OC)c3ccccc23)CC1`, the cell number change was determined as 14.6%. Besides, the AC50 under setting [2] is 0.0291 µM [rising, full curve, poor fit]. Further, the AC50 under setting [1] is 0.206 µM [rising, partial curve].

In the case of `N/C(CC(=O)NC1CCCCC1)=N\OCC(=O)Nc1ccc(Cl)c(Cl)c1`, the cell number change is 0.44%.

`O=[N+]([O-])c1ccc(Oc2c(F)c(F)nc(N3CCCC3)c2F)cc1`: the cell number change was -0.0379%. Further, the AC50 under setting [1] was 16.4 µM [rising, partial curve].
